Data on 39 compounds can be found in PubChem BioAssay AID493014 (National Center for Advancing Translational Sciences (NCATS), 2011).

As a reminder, the AC50 is the concentration giving half of the maximal activity seen.

Some of the results follow. Further columns of the screen follow, without active or inactive calls. Compounds called inactive in the main read-out are mostly missing here. Potencies come from curve fits of mixed quality, noted in brackets.

The assay can be described thus: qHTS Assay to Find Inhibitors of Chronic Active B-Cell Receptor Signaling. Particulars: ABC-DLBCL IkBa-CBG/CBR reporter, luminescence ratio (green luciferase fused to IkBa over red control in TMD8 lymphoma cells), 4 h. Put shortly:
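Concentration-response series (up to 46 uM) were applied to TMD8 dual-reporter cells for 4 h at 37C with doxycycline. Green/red ratio, after filter-overlap correction, defined %Activity; red signal alone was normalised to basal cells and zero luminescence.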
On the technique in general: In qHTS, concentration-response curves come from the screen itself.

[1] abbreviates: measured here: CBR red luminescence, cell number.
Where [2] appears, read: measured here: IkBa-CBG green luminescence.

Regarding `COc1ccccc1Nc1nc(C)cc(C)n1`, the AC50 under setting [1] was 12.6 µM [rising, partial curve, poor fit].
Same read-out and setting: the same measure for `CC(/C=C/c1ccco1)=N/NC(=O)c1ccccc1Cl`: 12.6 µM [falling, partial curve, poor fit]; for `CCOc1ccc(CN(C(=O)c2ccccn2)c2ccc(OC)c(Cl)c2)cc1`: 0.316 µM [rising, full curve, poor fit].
Still for that read-out and setting: the same measure for `O=C(N/N=C\c1ccc(-c2ccccc2[N+](=O)[O-])o1)C1COc2ccccc2O1` (configuration not stated): 25.9 µM [falling, single point]; for `CCC(=O)Nc1nnc(S(=O)(=O)N(CC)c2ccc(OC)cc2)s1`: 35.5 µM [rising, single point]; for `O=C(Nc1cccc2ccccc12)NC1CCCc2ccccc21` (configuration not stated): 29.1 µM [rising, single point].
As for `CSc1ccccc1NC(=O)CN(C)C(=O)CCc1c[nH]c2ccccc12`, the AC50 under setting [1] was 7.08 µM [falling, partial curve, poor fit].
Same read-out and setting: the result for `COC(=O)C1=C(C)NC(C)=C(C(=O)OC)C1C(=O)OCC(=O)c1ccc(F)cc1` reads 2.24 µM [rising, partial curve, poor fit]; that for `O=C(NC1CCCCC1)c1cc([N+](=O)[O-])[nH]n1`, 14.6 µM [falling, partial curve].
As to `CCC(C)NC(=O)c1ccccc1NC(=O)c1ccc(CSc2ccccc2)cc1` (configuration not stated), the AC50 by setting is: under setting [1], 3.26 µM [rising, full curve, poor fit]; under setting [2], 4.61 µM [falling, partial curve, poor fit].
On to `NC(=O)c1ccsc1NC(=O)COC(=O)c1cc(Cl)ccc1O`, for which the AC50 under setting [1] was 5.8 µM [falling, full curve, poor fit].
Same read-out and setting: the same measure for `CCCC1CCC(c2ccc(/C(N)=N/O)cc2)CC1` (configuration not stated): 3.55 µM [rising, full curve]; for `c1ccc2c(NCCCN3CCOCC3)c3ccccc3nc2c1`: 8.91 µM [falling, partial curve].
Same read-out and setting: the result for `COc1cccc2cc(C(C)=O)c(=O)oc12` reads 16.4 µM [falling, partial curve]; that for `CCN(CC)C(=O)Nc1ccc(Br)cc1`, 12.6 µM [rising, single point].
Same read-out and setting: the same measure for `CCC(Sc1nncn1C)C(=O)Nc1nnc(-c2ccccc2Cl)s1` (configuration not stated): 32.6 µM [rising, partial curve, poor fit]; for `CC(NC(=O)CNC(=S)N(Cc1cccs1)C1CCCC1)c1ccccc1` (configuration not stated): 12.6 µM [falling, single point]; for `Cn1ccc(C(=O)OCC(=O)c2ccccc2)n1`: 2 µM [rising, partial curve, poor fit].
For `COc1cccc(C(=O)Nc2ncc3c(n2)CC(c2ccc(OC)cc2OC)CC3=O)c1` (configuration not stated), under setting [1], the AC50 was 10 µM [falling, partial curve].
Same read-out and setting: the same measure for `COc1ccc(CCNC(=O)COC(=O)c2ccc(Br)o2)cc1OC`: 10.3 µM [rising, partial curve, poor fit]; for `O=C1C=C(Nc2ccc(O)cc2)C(=O)c2ccccc21`: 10 µM [falling, partial curve, poor fit]; for `COc1ccc(CCNC(=O)c2nn(C)cc2Cl)cc1`: 23.1 µM [falling, partial curve, poor fit].
The same measure, in the same setting: the result for `CCCC[C@@]1(C2CCCC2)Cc2cc(OCC(=O)O)c(Cl)c(Cl)c2C1=O` reads 29.1 µM [falling, single point]; that for `CC(C)(CNC(=O)/C=C/c1ccc(F)cc1)CNC(=O)/C=C/c1ccc(F)cc1`, 3.26 µM [falling, partial curve].
For `COc1ccc(OC)c2sc(N(CCCN(C)C)C(=O)CCS(=O)(=O)c3ccccc3)nc12`, the AC50 is 13 µM [falling, partial curve] under setting [1] and 14.6 µM [rising, partial curve, poor fit] under setting [2].
With `CCN(CC)S(=O)(=O)c1ccc(NC2CCCc3ccccc32)nc1` (configuration not stated), the AC50 under setting [1] was 32.6 µM [falling, single point].
As for `CC1(C)CCCN(C(=O)c2ccc3c(c2NCCO)C(=O)c2ccccc2C3=O)C1`, the concentration at half-maximal activity (AC50) under setting [1] was 6.51 µM [falling, partial curve].
Still for that read-out and setting: the same measure for `O=C(NCCN1CCCCC1)c1cccc2c1C(=O)c1ccc(N3CCCC3)cc1S2(=O)=O`: 32.6 µM [rising, partial curve, poor fit].
Consider `O=C(c1ccco1)N1CCN(c2nc3c(F)cc(F)cc3s2)CC1`, for which, under setting [1], the AC50 was 35.5 µM [falling, single point].
Still for that read-out and setting: the same measure for `COc1cc(SC)ccc1C(=O)Nc1ccc2c(c1)OCCO2`: 35.5 µM [falling, single point]; for `O=C1c2cccc3c(N4CCOCC4)c([N+](=O)[O-])cc(c23)C(=O)N1c1cccc2ccccc12`: 29.1 µM [rising, partial curve, poor fit]; for `c1ccc(-n2ncc3c(NCc4ccccn4)ncnc32)cc1`: 6.51 µM [rising, single point].
The same measure, in the same setting: the same measure for `COc1cccc(-n2nnnc2SCC(=O)Nc2cccc(NC(C)=O)c2)c1`: 12.6 µM [falling, partial curve, poor fit].
Consider `COc1ccc(CCn2nnnc2CN2CCN(C(=O)c3ccco3)CC2)cc1OC`, for which the AC50 under setting [1] is 3.98 µM [rising, partial curve, poor fit] and the AC50 under setting [2] is 3.55 µM [falling, single point].
On to `CC1CCN(CC(=O)Nc2cc(C(F)(F)F)ccc2Cl)CC1`, for which, under setting [1], the AC50 is 29.1 µM [rising, single point].
On the same count and under the same terms, the same measure for `COc1ccc(C(CC(=O)N2CCN(c3ccccc3)CC2)c2c(OC)cc(OC)c3ccc(=O)oc23)cc1` (configuration not stated): 6.31 µM [rising, single point]; for `O=C1C2C3c4ccccc4C(c4ccccc43)[C@@H]2C(=O)N1c1nc(-c2ccccc2)cs1` (some centres not stated): 32.6 µM [rising, partial curve, poor fit].
Same read-out and setting: the same measure for `COc1ccccc1NC(=O)Nc1nc(CC(=O)N2CCN(c3ccccc3F)CC2)cs1`: 29.1 µM [falling, single point].
The same measure, in the same setting: the result for `CCOC(=O)c1c(NC(=O)/C=C/C(=O)O)sc(C)c1-c1ccc(C(C)(C)C)cc1` reads 31.6 µM [falling, single point].
